# Data taken from paper PMC10333884, “Large‐scale phosphomimetic screening identifies phospho‐modulated motif‐based protein interactions” (Molecular Systems Biology, 2023).
# Amino acid sequences for entries named in this document (tags omitted). Residues count along the entry.
# UniProt Q00610, residues 1-364: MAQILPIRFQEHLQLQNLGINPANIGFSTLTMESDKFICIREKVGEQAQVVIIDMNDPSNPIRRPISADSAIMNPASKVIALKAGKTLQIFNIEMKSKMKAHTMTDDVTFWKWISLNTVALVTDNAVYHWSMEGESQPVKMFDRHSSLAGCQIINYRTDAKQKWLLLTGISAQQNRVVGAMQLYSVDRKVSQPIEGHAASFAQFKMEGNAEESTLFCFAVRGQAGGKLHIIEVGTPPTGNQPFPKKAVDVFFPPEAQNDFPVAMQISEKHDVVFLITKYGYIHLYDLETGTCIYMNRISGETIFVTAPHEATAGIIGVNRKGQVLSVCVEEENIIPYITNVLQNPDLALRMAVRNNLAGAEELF
# Target: Clathrin NTD, tagged bait of the phage selections (human) (UniProt Q00610)
# Experiment: proteomic peptide-phage display (ProP-PD); GST- or MBP-tagged bait immobilised in MaxiSorp wells; PM_HD2 library on M13 p8; four rounds of selection at 4°C, negative selection on the tag; enriched pools read by NGS; only the target purified
binder,measurement,value
"GQLIDLSSPLIQLSPE [GTSE1_(692–707) peptide, displayed on phage]",binding,binds

# Results are given in words; binding and its absence hold for the method and conditions named. In cells and extracts the contact can be indirect. These calls come from enrichment with a bait or labelling near it, and not all partners need be listed.
